The source of these data is PMC6683012.

No constants are given. Whether binding was seen depends on the method and setting. Binding seen in cells or lysates may run through a third protein. A yes stands for co-enrichment or nearness to the bait. Other partners may have been found. Tags and fused reporters may be left off the sequences shown.

For test [1], the target named is T1, SIRK1-GFP (Sucrose-induced receptor kinase 1 fused to GFP) (Arabidopsis) (UniProt Q0WR59).
T1 sequence: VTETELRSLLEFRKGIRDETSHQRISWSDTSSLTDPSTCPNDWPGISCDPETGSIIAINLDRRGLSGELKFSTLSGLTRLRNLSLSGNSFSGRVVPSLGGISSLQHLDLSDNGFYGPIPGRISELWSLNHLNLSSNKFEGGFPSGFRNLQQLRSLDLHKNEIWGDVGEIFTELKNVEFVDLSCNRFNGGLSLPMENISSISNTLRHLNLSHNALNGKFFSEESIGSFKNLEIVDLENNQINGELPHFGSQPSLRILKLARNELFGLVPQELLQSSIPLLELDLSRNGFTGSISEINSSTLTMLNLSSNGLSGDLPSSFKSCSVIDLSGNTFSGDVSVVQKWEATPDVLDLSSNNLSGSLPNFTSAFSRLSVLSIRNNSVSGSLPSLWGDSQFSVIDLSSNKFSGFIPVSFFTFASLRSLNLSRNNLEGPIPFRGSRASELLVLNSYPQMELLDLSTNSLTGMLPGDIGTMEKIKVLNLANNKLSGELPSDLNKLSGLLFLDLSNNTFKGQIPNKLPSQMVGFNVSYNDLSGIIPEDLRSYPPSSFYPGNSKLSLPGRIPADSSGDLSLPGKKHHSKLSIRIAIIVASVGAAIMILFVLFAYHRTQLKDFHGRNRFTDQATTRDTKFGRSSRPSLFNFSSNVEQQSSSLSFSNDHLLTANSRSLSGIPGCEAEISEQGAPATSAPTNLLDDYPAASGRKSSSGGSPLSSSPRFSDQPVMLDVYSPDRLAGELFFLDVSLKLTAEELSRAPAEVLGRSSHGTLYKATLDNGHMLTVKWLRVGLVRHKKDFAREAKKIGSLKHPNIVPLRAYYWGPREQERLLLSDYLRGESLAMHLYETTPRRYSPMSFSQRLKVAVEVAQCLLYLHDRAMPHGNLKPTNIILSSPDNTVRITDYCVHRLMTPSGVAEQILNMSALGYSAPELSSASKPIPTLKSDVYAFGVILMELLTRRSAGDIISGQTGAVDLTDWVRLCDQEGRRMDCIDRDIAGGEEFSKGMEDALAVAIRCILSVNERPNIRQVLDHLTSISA
In words: affinity purification with mass spectrometry; single-step pull-down of GFP-tagged bait from 100 ug root microsomal proteins on anti-GFP agarose beads (Chromotek), 2 h at 4 C; washed with 10 mM Tris/HCl pH 7.5, 150 mM NaCl, 0.5 mM EDTA, 0.01% IGEPAL; eluted with 6 M urea, 2 M thiourea; LC-MS/MS with label-free quantitation; roots sucrose-starved or resupplied with 30 mM sucrose for 3 min; GFP-only pulldown as control.

In a further test the target is T2, QSK1-GFP (Arabidopsis) (UniProt Q9M8T0).
T2 sequence: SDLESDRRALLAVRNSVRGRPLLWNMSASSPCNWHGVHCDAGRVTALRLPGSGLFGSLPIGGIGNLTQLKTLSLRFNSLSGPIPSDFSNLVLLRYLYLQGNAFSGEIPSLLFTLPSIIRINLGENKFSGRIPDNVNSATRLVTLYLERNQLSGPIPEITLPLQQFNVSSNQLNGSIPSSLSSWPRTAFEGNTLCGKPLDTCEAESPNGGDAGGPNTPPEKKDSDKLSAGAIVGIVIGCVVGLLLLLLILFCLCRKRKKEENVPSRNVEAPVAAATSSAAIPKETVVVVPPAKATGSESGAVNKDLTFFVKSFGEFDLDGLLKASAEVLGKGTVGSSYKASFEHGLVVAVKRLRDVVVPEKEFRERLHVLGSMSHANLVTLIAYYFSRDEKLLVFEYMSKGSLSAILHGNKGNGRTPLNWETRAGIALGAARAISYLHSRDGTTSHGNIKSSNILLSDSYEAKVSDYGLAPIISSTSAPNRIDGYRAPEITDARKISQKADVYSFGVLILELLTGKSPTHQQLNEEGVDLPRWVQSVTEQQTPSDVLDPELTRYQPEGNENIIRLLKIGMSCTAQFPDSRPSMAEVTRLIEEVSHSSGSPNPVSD
Described as above.

B1: Calcium ATPase ACA8 (protein, UniProt Q9LF79 1-1074)
chain: MTSLLKSSPGRRRGGDVESGKSEHADSDSDTFYIPSKNASIERLQQWRKAALVLNASRRFRYTLDLKKEQETREMRQKIRSHAHALLAANRFMDMGRESGVEKTTGPATPAGDFGITPEQLVIMSKDHNSGALEQYGGTQGLANLLKTNPEKGISGDDDDLLKRKTIYGSNTYPRKKGKGFLRFLWDACHDLTLIILMVAAVASLALGIKTEGIKEGWYDGGSIAFAVILVIVVTAVSDYKQSLQFQNLNDEKRNIHLEVLRGGRRVEISIYDIVVGDVIPLNIGNQVPADGVLISGHSLALDESSMTGESKIVNKDANKDPFLMSGCKVADGNGSMLVTGVGVNTEWGLLMASISEDNGEETPLQVRLNGVATFIGSIGLAVAAAVLVILLTRYFTGHTKDNNGGPQFVKGKTKVGHVIDDVVKVLTVAVTIVVVAVPEGLPLAVTLTLAYSMRKMMADKALVRRLSACETMGSATTICSDKTGTLTLNQMTVVESYAGGKKTDTEQLPATITSLVVEGISQNTTGSIFVPEGGGDLEYSGSPTEKAILGWGVKLGMNFETARSQSSILHAFPFNSEKKRGGVAVKTADGEVHVHWKGASEIVLASCRSYIDEDGNVAPMTDDKASFFKNGINDMAGRTLRCVALAFRTYEAEKVPTGEELSKWVLPEDDLILLAIVGIKDPCRPGVKDSVVLCQNAGVKVRMVTGDNVQTARAIALECGILSSDADLSEPTLIEGKSFREMTDAERDKISDKISVMGRSSPNDKLLLVQSLRRQGHVVAVTGDGTNDAPALHEADIGLAMGIAGTEVAKESSDIIILDDNFASVVKVVRWGRSVYANIQKFIQFQLTVNVAALVINVVAAISSGDVPLTAVQLLWVNLIMDTLGALALATEPPTDHLMGRPPVGRKEPLITNIMWRNLLIQAIYQVSVLLTLNFRGISILGLEHEVHEHATRVKNTIIFNAFVLCQAFNEFNARKPDEKNIFKGVIKNRLFMGIIVITLVLQVIIVEFLGKFASTTKLNWKQWLICVGIGVISWPLALVGKFIPVPAAPISNKLKVLKFWGKKKNSSGEGSL
Regarding B1, the binding entry in test [1] is “binds”.

B2: QSK2 (AT5G16590), endogenous (receptor, UniProt Q9FMD7 24-625)
chain: DLEADRRALIALRDGVHGRPLLWNLTAPPCTWGGVQCESGRVTALRLPGVGLSGPLPIAIGNLTKLETLSFRFNALNGPLPPDFANLTLLRYLYLQGNAFSGEIPSFLFTLPNIIRINLAQNNFLGRIPDNVNSATRLATLYLQDNQLTGPIPEIKIKLQQFNVSSNQLNGSIPDPLSGMPKTAFLGNLLCGKPLDACPVNGTGNGTVTPGGKGKSDKLSAGAIVGIVIGCFVLLLVLFLIVFCLCRKKKKEQVVQSRSIEAAPVPTSSAAVAKESNGPPAVVANGASENGVSKNPAAVSKDLTFFVKSFGEFDLDGLLKASAEVLGKGTFGSSYKASFDHGLVVAVKRLRDVVVPEKEFREKLQVLGSISHANLVTLIAYYFSRDEKLVVFEYMSRGSLSALLHGNKGSGRSPLNWETRANIALGAARAISYLHSRDATTSHGNIKSSNILLSESFEAKVSDYCLAPMISPTSTPNRIDGYRAPEVTDARKISQKADVYSFGVLILELLTGKSPTHQQLHEEGVDLPRWVSSITEQQSPSDVFDPELTRYQSDSNENMIRLLNIGISCTTQYPDSRPTMPEVTRLIEEVSRSPASPGPLSD
For the molecule B2, in test [1], the binding result is given as “binds”.

B3: SIRK1 (AT5G10020), endogenous (receptor, UniProt Q0WR59 22-1048)
chain: T1 sequence
On to B3, for which the binding entry with QSK1-GFP (Arabidopsis) is listed as “binds”.

B4: QSK1 (AT3G02880), endogenous (receptor, UniProt Q9M8T0 24-627)
chain: T2 sequence
Turning to B4, the binding result in test [1] is reported as “binds”.
